# System: TRANSWELL in vitro BBB model, co-culture of RBE4 (rat brain endothelial) cells with C6 (rat astrocytoma) cells
# Experiment: Trans-endothelial electrical resistance (TEER) of […] BBB model
# Format: cell-based
# Conditions: 48 hours, after treatment with 10 μM equivalent, n=4, mean ± SD
smiles,measurement,value
CCn1c(=O)/c(=C2\Sc3ccccc3N2C)s/c1=C\c1cccc[n+]1CC.[Cl-] [MKT-077],TEER after treatment,294.56 ± 18.15 Ωcm^2
